## Results of single-concentration screens

Sequences of proteins named here, by UniProt entry; tags and fusion partners are left off. Residues count along the entry.
UniProt Q8IDJ8, 1-583: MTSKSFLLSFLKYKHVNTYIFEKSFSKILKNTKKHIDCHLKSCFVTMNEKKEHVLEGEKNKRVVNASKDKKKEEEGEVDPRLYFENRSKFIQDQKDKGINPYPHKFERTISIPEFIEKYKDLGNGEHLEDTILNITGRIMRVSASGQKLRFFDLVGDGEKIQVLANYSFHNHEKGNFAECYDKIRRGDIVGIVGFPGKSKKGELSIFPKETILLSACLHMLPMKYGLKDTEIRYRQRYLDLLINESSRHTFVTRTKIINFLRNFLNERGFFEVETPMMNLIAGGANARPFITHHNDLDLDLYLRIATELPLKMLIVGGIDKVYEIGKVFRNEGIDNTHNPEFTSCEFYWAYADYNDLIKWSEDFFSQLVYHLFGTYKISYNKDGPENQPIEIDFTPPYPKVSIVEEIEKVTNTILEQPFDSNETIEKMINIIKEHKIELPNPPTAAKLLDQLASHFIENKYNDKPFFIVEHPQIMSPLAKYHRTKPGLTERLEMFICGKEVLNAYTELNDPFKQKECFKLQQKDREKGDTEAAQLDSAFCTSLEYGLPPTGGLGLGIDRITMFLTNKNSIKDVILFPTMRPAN
UniProt P9WFT3, whole entry: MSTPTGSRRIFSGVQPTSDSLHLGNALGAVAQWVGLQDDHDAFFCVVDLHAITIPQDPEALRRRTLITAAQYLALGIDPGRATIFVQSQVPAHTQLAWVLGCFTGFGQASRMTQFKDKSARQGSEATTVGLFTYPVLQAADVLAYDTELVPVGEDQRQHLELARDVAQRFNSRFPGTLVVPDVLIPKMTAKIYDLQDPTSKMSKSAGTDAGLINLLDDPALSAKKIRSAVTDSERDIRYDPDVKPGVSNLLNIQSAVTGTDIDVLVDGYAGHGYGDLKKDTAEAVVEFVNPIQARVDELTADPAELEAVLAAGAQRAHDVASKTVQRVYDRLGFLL

Data taken from ChEMBL document CHEMBL3988442, “University of Dundee, Small-Polar-MMV Screening Library” (2021).

PfKRS1: 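Enzyme assay of the cytosolic lysyl-tRNA synthetase in 384-well plates, read by luminescence. Target: Lysine-tRNA ligase, Plasmodium falciparum 3D7 (UniProt Q8IDJ8). Concentration: 30 µM. Direction is inferred from only a few compounds that gave an IC50; most scored high, so higher reads as stronger inhibition. About 69,000 compounds were tested under these conditions; 0.071% (about 49) showed 50% or more at least once.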
MtTrpRS: 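Enzyme assay of tryptophanyl-tRNA synthetase; the read-out is not stated. Target: Tryptophan-tRNA ligase, Mycobacterium tuberculosis (UniProt P9WFT3). Compounds at 10 µM. Direction is not recorded; retested compounds ran higher, which suggests that high means inhibition. About 65,000 compounds were tested under these conditions; 0.098% (about 64) showed 50% or more at least once.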

Each number is a percent effect as filed. The record does not define 0% and 100%; most values in the screen are far below 50% and negative numbers occur (in some assays of this library far below -100). This is an unselected part of the compounds tested. A dash means the value is not listed here; it may have been measured.

| SMILES | PfKRS1 | MtTrpRS |
|---|---|---|
| `Cc1noc(C2CCC3(CCN(C(=O)c4ccncn4)CC3)O2)n1` (stereo not drawn) | 1.968 | -0.8167 |
| `COCCn1ccnc1C1CCN(C(=O)C(O)c2ccc(F)cc2)CC1` (stereo not drawn) | 6.329 | -4.094 |
| `O=C(Nc1ccc2c(c1)OC1(CCCC1)O2)c1ccc(=O)[nH]n1` | 6.821 | -3.374 |
| `O=C(Nc1ccc(F)cc1)N1CCC2(CCC(=O)N(C3CC3)C2)CC1` | 0.4316 | -4.025 |
| `O=C(NCCc1cccs1)C1(N2CCCCC2)Cc2ccccc2C1` | -2.46 | -4.235 |
| `Cc1ccc(-n2nnc(C(=O)O)c2C)c(C)c1` | 5.004 | -2.251 |
| `OC1=C2C(=Nc3n[nH]c(O)c3C2c2ccccc2Cl)CCC1` (stereo not drawn) | 7.389 | 0.5663 |
| `COC(=O)[C@@H](NC(=O)c1coc(COc2cccc(F)c2F)n1)C(C)C` | 0.8663 | 2.205 |
| `O=C(O)[C@@H]1CN(CC(=O)N2CCCCC2)C[C@H]1c1ccc(F)cc1` | 2.55 | 1.444 |
| `CC(C)[C@H](N)CC(=O)Nc1nc(-c2cnc(N3CCOCC3)nc2)cs1` | 3.849 | - |
| `Cc1noc(C2CCN(C(=O)c3cccs3)CC2)n1` | 3.064 | 6.452 |
| `Cc1cc(C)n2c(CCCNS(=O)(=O)c3ccc(F)cc3)nnc2n1` | 0.2219 | 2.973 |
| `Cc1nc(CN2CCCC(CCc3c(F)cccc3F)C2)c[nH]1` (stereo not drawn) | 2.238 | 0.2506 |
| `CN(CCc1ccncc1)C(=O)C1CSCN1C(=O)CC(C)(C)C` (stereo not drawn) | 2.813 | -1.874 |
| `CC(C)N(C(=O)CCc1ccco1)C1CCOCC1` | 2.255 | -4.235 |
| `CN(C(=O)Cc1cccs1)C1CCN(c2ccccn2)CC1` | 3.696 | -1.132 |
| `COc1cccc([C@@H]2CCN(Cc3ccc4ccccc4n3)C[C@H]2O)c1` | 2.566 | 4.762 |
| `CNS(=O)(=O)c1cccc(CNC(=O)c2c(C)nn(C)c2C)c1` | 0.242 | -2.047 |
| `O=S(=O)(c1ccccc1)N1CCOC(Cn2ccnc2)C1` (stereo not drawn) | 1.465 | -1.057 |
| `Cc1cc(C)c2nc(C)c(C(=O)N3CCC(CCN(C)C)CC3)cc2c1` | -0.7403 | 2.604 |
| `OC(c1cnn(-c2ccccc2)c1)C(F)(F)F` (stereo not drawn) | 3.511 | -0.3068 |
| `CCOc1ccc(OCc2nc3c(c(=O)[nH]2)CCNC3)cc1` | 2.31 | 4.279 |
| `Cc1ccc(CN(C)C(=O)CN2CCCC2c2cnn(C)c2)cc1` (stereo not drawn) | 2.772 | 0.2349 |
| `CN(C)c1cncc(-c2ccnc3c2ccn3C)n1` | 5.049 | 1.956 |
| `O=C(CSc1ccccc1)Nc1cnn(CC(=O)N2CCCO2)c1` | -2.241 | 1.147 |
| `CCN(CC)C(=O)CCNC(=O)N(C)Cc1ccc(SC)c(OC)c1` | -2.131 | -6.054 |
| `O=C(C1CCC1)N1CCn2c(COc3ncccn3)nnc2C1` | -1.021 | -2.397 |
| `CCc1csc(CNc2cc(C)nc(-c3cccnc3)n2)n1` | -1.575 | 2.877 |
| `CC1=Nc2c(c(=O)[nH]n2C(C)C)C(c2ccc3c(c2)OCCO3)S1` (stereo not drawn) | 3.394 | -0.07003 |
| `CCN(CC)C(=O)c1ccc(Cl)c(NC(=O)c2cc[nH]n2)c1` | -5.263 | 1.879 |
| `c1cc2c(cc1CN1C[C@@H]3COC[C@@H](N4CCCC4)[C@@H]3C1)OCO2` | 3.462 | -6.7 |
| `CC1CN(C(=O)NCc2cnn(-c3ccc(F)cc3F)c2)CCO1` (stereo not drawn) | 2.186 | -0.09551 |
| `O=C(Cn1cccnc1=O)NCCc1ccc2c(c1)OCCO2` | -0.7776 | 1.774 |
| `Cc1nc(C)n(CC2CCCN2CC(=O)N(C)Cc2ccc(C)o2)n1` (stereo not drawn) | -1.207 | 2.557 |
| `CCOCC1CN(C(=O)c2ccnnc2)Cc2cnn(CC)c21` (stereo not drawn) | 0.6685 | -0.8403 |
| `COc1ccc(N2CCCC3(C2)CN(c2ncccn2)CCO3)cc1` (stereo not drawn) | 0.616 | 2.705 |
| `Cc1cc(CN2CCN(C(=O)NC(C)c3cccs3)CC2)on1` (stereo not drawn) | -0.9339 | -3.955 |
| `O=C1CC(NCc2cnc(N3CCCC3)nc2)CN1c1ccccc1` (stereo not drawn) | 3.72 | 4.736 |
| `Cc1cc(F)ccc1C(=O)N1C[C@@H]2COC[C@]2(CN(C)C)C1` | 3.565 | 9.012 |
| `C=C1C(C)(C)[C@H]2CC[C@]1(C(=O)N1CCC(n3cc(CCO)nn3)CC1)C2` | -2.667 | 1.008 |
| `Cc1ccc(CN2CCN(Cc3ccncc3)CC2=O)cc1` | 7.979 | 1.522 |
| `OC[C@H]1CCCN1c1nccc(-c2cncnc2C2CCCCC2)n1` | 4.268 | - |
| `CCS(=O)(=O)NC[C@]12COC[C@H]1CN(Cc1cccc(OC)c1)C2` | 2.294 | -1.133 |
| `COC1(CNC(=O)c2ccc3nsnc3c2)CCSC1` (stereo not drawn) | -2.124 | 1.336 |
| `C[C@@H]1CN(S(=O)(=O)c2ccc(F)cc2Cl)C[C@]1(C)O` | -1.343 | -0.854 |
| `CC(OCC1CC1)C(=O)N1CCCN(Cc2cnn(C)c2)CC1` (stereo not drawn) | 5.783 | 5.166 |
| `NC(=O)c1cc2c(nc1-c1ccoc1)CCC2` | 4.307 | -6.657 |
| `Cc1cc(C)n(CCC(=O)N2CCC(c3nc(C)no3)CC2)n1` | 2.292 | 1.036 |
| `Cc1cn[nH]c1C1COCCN1Cc1c[nH]cn1` (stereo not drawn) | -0.5657 | 3.721 |
| `CN1CCC(c2cncc(Cl)n2)CC1` | -0.5722 | -7.236 |
| `CNS(=O)(=O)c1cccc(CNc2cc(C(F)(F)F)ccn2)c1` | 1.469 | 0.2347 |
| `CC(C)CCN(C(=O)c1cc2c([nH]c1=O)CCCC2=O)C1CC1` | 4.703 | 0.4938 |
| `CN(C)C[C@@H]1CN(C(=O)Cc2cccc(O)c2)C[C@@H]1CO` | 6.497 | 0.1575 |
| `CCOC(=O)Cc1csc(NC(=O)c2cc(=O)c(OC)c[nH]2)n1` | 9.989 | -2.311 |
| `Cc1ccccc1C(CC(=O)NCC(N)=O)c1ccccc1` (stereo not drawn) | 1.69 | 2.27 |
| `CC(C)n1cc(CN2CCCN(C(=O)CC3CCCO3)CC2)cn1` (stereo not drawn) | -0.8512 | -7.729 |
| `NC(=O)c1ccc(N2CCCCC2)c(NC(=O)c2cc(Br)ccc2Cl)c1` | 4.909 | 4.152 |

Repeated from the top, 4 entries:

Cc1noc(C2CCC3(CCN(C(=O)c4ccncn4)CC3)O2)n1 (stereo not drawn) read PfKRS1: 1.968%; MtTrpRS: -0.8167%.
COCCn1ccnc1C1CCN(C(=O)C(O)c2ccc(F)cc2)CC1 (stereo not drawn) read PfKRS1: 6.329%; MtTrpRS: -4.094%.
O=C(Nc1ccc2c(c1)OC1(CCCC1)O2)c1ccc(=O)[nH]n1 read PfKRS1: 6.821%; MtTrpRS: -3.374%.
O=C(Nc1ccc(F)cc1)N1CCC2(CCC(=O)N(C3CC3)C2)CC1 read PfKRS1: 0.4316%; MtTrpRS: -4.025%.